Measurements taken from paper PMC6758689.
Results are given in words; binding and its absence hold for the method and conditions named. Binding seen in cells or lysates may run through a third protein.

Sequences of proteins named here, by UniProt entry; tags and fusion partners are left off.
UniProt O14818: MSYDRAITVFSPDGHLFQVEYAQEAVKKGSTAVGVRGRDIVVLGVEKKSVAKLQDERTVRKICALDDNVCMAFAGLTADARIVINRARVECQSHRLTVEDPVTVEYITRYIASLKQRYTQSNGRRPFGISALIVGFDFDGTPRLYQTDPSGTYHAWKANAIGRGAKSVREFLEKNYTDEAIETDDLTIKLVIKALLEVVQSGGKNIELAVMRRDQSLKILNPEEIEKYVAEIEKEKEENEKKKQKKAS
UniProt Q92922: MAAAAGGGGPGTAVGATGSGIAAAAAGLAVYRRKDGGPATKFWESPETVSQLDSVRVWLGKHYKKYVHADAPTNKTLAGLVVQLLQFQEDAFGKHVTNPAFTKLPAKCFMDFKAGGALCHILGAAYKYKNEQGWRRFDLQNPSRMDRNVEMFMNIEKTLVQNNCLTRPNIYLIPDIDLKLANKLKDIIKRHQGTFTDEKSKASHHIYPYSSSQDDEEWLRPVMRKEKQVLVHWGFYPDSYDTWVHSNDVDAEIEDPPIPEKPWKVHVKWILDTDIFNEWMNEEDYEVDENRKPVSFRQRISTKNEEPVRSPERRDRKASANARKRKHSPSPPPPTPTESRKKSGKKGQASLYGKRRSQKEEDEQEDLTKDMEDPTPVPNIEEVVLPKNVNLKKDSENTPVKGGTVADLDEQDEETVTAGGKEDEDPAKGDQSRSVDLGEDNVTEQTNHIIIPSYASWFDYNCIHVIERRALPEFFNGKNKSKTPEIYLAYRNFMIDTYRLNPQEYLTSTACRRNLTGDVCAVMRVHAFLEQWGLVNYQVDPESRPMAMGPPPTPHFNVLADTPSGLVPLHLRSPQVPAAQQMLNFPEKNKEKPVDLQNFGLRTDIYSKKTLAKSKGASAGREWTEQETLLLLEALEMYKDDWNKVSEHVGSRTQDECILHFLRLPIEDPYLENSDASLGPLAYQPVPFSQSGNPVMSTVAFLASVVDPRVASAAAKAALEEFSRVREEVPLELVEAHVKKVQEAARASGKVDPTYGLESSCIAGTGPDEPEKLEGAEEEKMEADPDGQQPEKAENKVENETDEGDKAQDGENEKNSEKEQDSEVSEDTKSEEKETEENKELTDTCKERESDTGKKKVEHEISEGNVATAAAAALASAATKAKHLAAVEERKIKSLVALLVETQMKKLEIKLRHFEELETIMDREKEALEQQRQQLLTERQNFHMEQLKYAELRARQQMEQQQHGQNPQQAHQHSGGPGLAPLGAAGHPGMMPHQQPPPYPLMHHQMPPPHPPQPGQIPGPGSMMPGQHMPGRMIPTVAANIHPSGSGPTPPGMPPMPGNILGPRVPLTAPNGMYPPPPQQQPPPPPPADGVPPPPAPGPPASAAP

How the values were obtained:
[1] = molecular target: proteasomal subunit PSMA7 (human (endogenous in Huh7)) (UniProt O14818); assay: co-IP; precipitated with anti-BAF155 and blotted for PSMA7, and vice versa (Figure 5B)
[2] = molecular target: endogenous BAF155 (human (endogenous in Huh7)) (UniProt Q92922); assay: as above

endogenous BAF155 (from UniProt Q92922 1-1105)
binding [1]: no binding

proteasomal subunit PSMA7 (from UniProt O14818 1-248)
binding [2]: no binding
